# Experimental data from PubChem BioAssay AID1508600 (Functional Genomics Laboratory (NCATS/FGL), 2020).
# In all, about 53,000 sequences went through this assay and about 3,700 (7%) were called active.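 How the source made its calls: active means gene knockdowns whose robust z-score for IL-1 alpha signal is at least 2 or at most -2, so actives lie on both sides; inactive means the rest.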 The list shows a part of the results.
# Assay: Components of the Cytosolic LPS Sensing Pathway: Gene Identification via Genome-wide siRNA Screen;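 further: robust z of the log signal after scaling to non-targeting control siRNA wells of the plate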
# Conditions: RAW264.7 macrophages, IL-1a HTRF, actives lie on both sides, screened at 100 nM (by protocol), cells primed 5 h with Pam3CSK4 first
# Procedure, shortened: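 RAW264.7; siRNA 100 nM final, RNAiMAX, 48h 37 degrees C; Pam3CSK4 5 h; LipidA + TransIT-TKO 24 h; IL-1a HTRF; CellTiter-Glo viability; robust z vs negative-control median.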
row,Sequence,z-score
1,GGGUUUUUUUAACUGCUUUTT against Efemp1,inactive: 0.162
2,GGGUUAACUUUUGUUCAAUTT against Gm6288,inactive: 0.761
3,GCUUACCUAUUAGCAGCUUTT against Atg16l1,inactive: -1.49
4,GGAUGAAGACGGAUUCCUCTT against Map1lc3a,inactive: 0.384
5,GCGACAGGACUUCAUUACUTT against Pou1f1,inactive: 0.125
6,GGUCCAGGUGAUAAAUAUATT against Aknad1,inactive: 0.867
7,GAGAUCUUACCCAGCAGAUTT against Ifna4,inactive: 0.675
8,GUGAAGAGAAGGCUUGAGUTT against Ifna11,inactive: 0.236
9,GGAGUUGUUGUGCUUUUAATT against Tmem45a,active: 3.02
10,GGUCUUCUCCCAAAUAAAUTT against Lcmt1,inactive: -0.565
11,GGCUUUGGAAGUAUCUUUGTT against Pcsk7,inactive: 0.267
12,GGUGAUGUAUGUUACGCUGTT against Srsf1,inactive: -0.00436
13,CCUGGACCCAUUAUUUGCCTT against Slc35a2,inactive: 0.44
14,GCCUAUUCUAUCGAUAACCTT against Cdh23,inactive: 0.801
15,GCACAUGCACUUCUCACUUTT against Olfr223,inactive: 0.816
16,CCCAUCUCCUUAAAGUCAATT against Ripk3,inactive: 1.32
17,GGGAAAUGUUGAACAUAUCTT against Lap3,inactive: 0.235
18,GGGCGAACACUCCAAAGAATT against Tiprl,inactive: 1.24
19,GCGAUGUAAUUACAAACCUTT against 9130019P16Rik,inactive: -0.0706
20,GGCUGUGAAGAAAUACCACTT against Lcp2,inactive: 0.372
21,GGAUAUUCUUUCCAGGCUATT against Fanca,inactive: -0.0387
22,CGUGCAUGCAAAUUAUGUATT against Golga7b,inactive: -0.612

row,Sequence,z-score
1,GCACAGGAAACAAUUGAUATT against Stxbp4,inactive: -0.0598
2,CCCAUGCUUGGAAUAAUUATT against Man1a,inactive: 0.00246
3,CCACGAUCAAGGAGAAUGUTT against Apoa4,inactive: -1.54
4,GGAGUUAGGCUGUAGAAGUTT against Dpysl2,inactive: 0.303
5,CCAUGGAGAAUCAUGACAGTT against Slfn1,inactive: 0.864
6,GCCUUUUUAAAGCUCAAGUTT against Zfp975,inactive: -0.553
7,CCAGUUUGUACAUAGUGUATT against Rab35,inactive: -1.05
8,GCUAGUGAAAAAGAUCGACTT against Kcnn2,inactive: -0.101
9,GGCUAUGGCAGUUAUCAAATT against Eif2s1,inactive: -0.799
10,CCUUUCCUAACUUGAUCACTT against Cbr2,inactive: 0.443
11,GGCCAAGCAUCCUGAACAATT against B3galt6,inactive: 0.0266
12,CUUUUACACCAUCAUGACGTT against Mrgpra5,active: -2.06
13,GUAACUGUCACCCAGAGAATT against Defb10,inactive: -0.339
14,GGGAAAUUAAAUCUGUUCATT against Mfsd9,inactive: 0.818
15,GGAGGAGACUCCUAAGAAGTT against Cc2d1a,inactive: -1.54
16,GGUUUGUUUCCUGACAUUATT against Sh3gl3,inactive: -1.48
17,GGACUUUGACCCGUACUAUTT against Scn8a,inactive: 0.951
18,GGUUCUCCUGAUUUGUUUATT against Sdhc,inactive: 0.421
19,GGAUGCUCACCUUCAAAUUTT against Il2,active: 2.33
20,GGUAAAUCAUGUUUACUCUTT against Det1,inactive: -1.19
21,CGUGGUCUAUAAUGAUAUUTT against Smim19,inactive: -0.13
22,GGCUAAAUGGGAAACCUGGTT against Cdkn2b,inactive: -0.0359

row,Sequence,z-score
1,CCCUCAUUCUCUAGCGUGATT against H2-K1,inactive: -1.07
2,GGCAACUUCAAGUCCAUAUTT against Pnma3,active: 3.18
3,CCACUCUGGCGAACCCAUUTT against Fam241a,inactive: -0.489
4,GCCCAAACUGCUCUACUGCTT against Fgf1,inactive: 0.919
5,GGCAUAAAGUUGUUUACAGTT against Zfp706,inactive: -0.401
6,GGUGUCUGUGCCUAUCAUCTT against Slc34a3,inactive: 0.017
7,GGGAACUUUCCUCAAGUCUTT against Phactr3,inactive: 0.107
8,GGGUAUUUCCUGGUGGAUUTT against Mrps6,inactive: 0.221
9,GGUCAUCAACCAAUUCCAGTT against Tmem127,inactive: 0.17
10,GGUGCAAAGACAAGUUAAATT against Shh,inactive: 0.482
11,GGUCAUCUUUCCAGUCAGCTT against Naa50,inactive: -0.664
12,GGCAGGUGAAUGUGGUAGATT against Btbd17,inactive: 0.165
13,GGCUUACUUCAUUUCAGUUTT against Zfp526,inactive: 0.0808
14,GGUUUCAUGUGACUUUUAUTT against Tg,inactive: -0.397
15,GGUUUUUGCUGAGUCUUGCTT against Olfr299,inactive: 0.00611
16,CCUCUCUACUACAGACCUUTT against Olfr1058,inactive: -0.471
17,ACCUGUUGAGCAAAGAAUGTT against Cst8,inactive: -0.0192
18,GCGCAUAUGGCUACGUUCATT against Rnf182,inactive: -0.2
19,CCAAGCCCACAACGAUCGUTT against Triobp,inactive: -0.0386
20,GGUUCACAGAAAUUGAGGUTT against Calhm2,inactive: -0.992
21,CGAGAAAAUGGAUUCUACCTT against Atp10d,inactive: 0.314
22,GGAUGAUGCCGUGUAUGAGTT against Kirrel3,inactive: 1.43

row,Sequence,z-score
1,GUGGGAAUUCUGAAAAAUATT against Vmn1r231,inactive: 0.301
2,GGUUUUUAACAAGCUAAUCTT against Bzw1,inactive: 1.51
3,GCUUUGACUUGAAACAAAATT against LOC574530,inactive: -0.969
4,GCACUGCUGUCUAUAUUCATT against Olfr117,inactive: 0.476
5,GCACCAGGAGUUACCUGUATT against Tex2,inactive: -0.12
6,GGUGCUCAGCAUGUUUGCUTT against Avpr1b,inactive: -1.06
7,GGAUUAAAUCCGAAAAGCUTT against Tmem51,active: -2.36
8,GCAACUUGUGCCUCUGCUATT against Dhh,inactive: 1.17
9,CCAUGUCAAGCGGAUAGCATT against Mc5r,inactive: -0.4
10,ACCAGUAUGGCUUAAAGACTT against Bglap3,inactive: -0.653
11,GGCUGUCUUACAAUGUAAUTT against Gabrb2,inactive: -0.638
12,GAAGAUUCUCCAUUGUUUGTT against Lce1e,inactive: 1.16
13,GGUCAUGAGAUCAGCCCUUTT against Adh5,inactive: -0.167
14,GGUGGUCACCUAUUCAUGUTT against Cd55,inactive: 0.114
15,CCAUCUGCAUCAAGAGAAATT against Kirrel2,inactive: 0.709
16,GGGUCAAAGUCAGACUAUGTT against Cnpy4,inactive: -0.599
17,CGGUUAGACAGUGCACCAATT against Dnm1,inactive: 0.4
18,CGAGAGUGGGUGGGUUGAATT against Zfp950,inactive: 0.628
19,GGACAAUAGAUGUGUUUGATT against Ddb2,inactive: 1.57
20,CCUAACUUCACCAUAAUCATT against Xrn2,inactive: 0.759
21,GGUCAAAAUGUCUUUGGAATT against Rgs1,inactive: -1.63
22,CCUCCAUUAACUAUGUUAGTT against Chd1l,inactive: -0.16

# Another view of part of the listing above.
row	Sequence	z-score
14	GCCUAUUCUAUCGAUAACCTT against Cdh23	inactive: 0.801
15	GCACAUGCACUUCUCACUUTT against Olfr223	inactive: 0.816
16	CCCAUCUCCUUAAAGUCAATT against Ripk3	inactive: 1.32
17	GGGAAAUGUUGAACAUAUCTT against Lap3	inactive: 0.235
18	GGGCGAACACUCCAAAGAATT against Tiprl	inactive: 1.24
19	GCGAUGUAAUUACAAACCUTT against 9130019P16Rik	inactive: -0.0706
20	GGCUGUGAAGAAAUACCACTT against Lcp2	inactive: 0.372
21	GGAUAUUCUUUCCAGGCUATT against Fanca	inactive: -0.0387
22	CGUGCAUGCAAAUUAUGUATT against Golga7b	inactive: -0.612
1	GCACAGGAAACAAUUGAUATT against Stxbp4	inactive: -0.0598
2	CCCAUGCUUGGAAUAAUUATT against Man1a	inactive: 0.00246
3	CCACGAUCAAGGAGAAUGUTT against Apoa4	inactive: -1.54
4	GGAGUUAGGCUGUAGAAGUTT against Dpysl2	inactive: 0.303
5	CCAUGGAGAAUCAUGACAGTT against Slfn1	inactive: 0.864
6	GCCUUUUUAAAGCUCAAGUTT against Zfp975	inactive: -0.553
7	CCAGUUUGUACAUAGUGUATT against Rab35	inactive: -1.05
8	GCUAGUGAAAAAGAUCGACTT against Kcnn2	inactive: -0.101
9	GGCUAUGGCAGUUAUCAAATT against Eif2s1	inactive: -0.799
10	CCUUUCCUAACUUGAUCACTT against Cbr2	inactive: 0.443
11	GGCCAAGCAUCCUGAACAATT against B3galt6	inactive: 0.0266
12	CUUUUACACCAUCAUGACGTT against Mrgpra5	active: -2.06
13	GUAACUGUCACCCAGAGAATT against Defb10	inactive: -0.339
14	GGGAAAUUAAAUCUGUUCATT against Mfsd9	inactive: 0.818
15	GGAGGAGACUCCUAAGAAGTT against Cc2d1a	inactive: -1.54
16	GGUUUGUUUCCUGACAUUATT against Sh3gl3	inactive: -1.48
17	GGACUUUGACCCGUACUAUTT against Scn8a	inactive: 0.951
18	GGUUCUCCUGAUUUGUUUATT against Sdhc	inactive: 0.421
19	GGAUGCUCACCUUCAAAUUTT against Il2	active: 2.33
20	GGUAAAUCAUGUUUACUCUTT against Det1	inactive: -1.19

# (next part)

row,Sequence,z-score
1,GGAGGAUGGAAAGAUAAAATT against Slc25a27,inactive: -1.18
2,GGUGAUGGAGAAGAGAAGATT against Fam107b,active: 2.88
3,GGUUAAAAGCAUCUCUAAGTT against Cd8b1,inactive: 0.137
4,ACUACAUUACCAGAAGACATT against Olfr1178,inactive: 1.5
5,GCCUUGAACCUUCACACCUTT against Ccl8,inactive: -0.941
6,GCGAAGUCAUCAAAUUUUCTT against Abcb11,inactive: 0.622
7,GGGAGGAGAUUAUUUCUAUTT against Nmnat2,inactive: -0.228
8,GCCUUCAAGCCAAAGAUAGTT against Lin54,inactive: -0.582
9,GGGUUUACUUCUCAGACAGTT against Cfap20,inactive: 0.175
10,GGGACCUGACCUUACUCAUTT against Shisa4,inactive: -1.77
11,GGCUCCUUAAAGAUAUGUUTT against Nsmaf,inactive: 1.07
12,GGUGAAGGCUUACCAGAUUTT against Oog1,inactive: 0.894
13,GGUUUGUGGAUGACAACGGTT against Mtf1,inactive: 0.216
14,GGCCUAACCUCCAAAAGUATT against Xpo4,inactive: 0.307
15,CCACAAGUUCACUAAGGAGTT against Six3,inactive: 0.193
16,GCAGUGCUCUUUAGCAUAATT against Zfp689,inactive: 1.01
17,GGUGUCCUAUGAUUACAGCTT against Fam181b,inactive: 1.13
18,GCCACAUUCCGAAUACUCUTT against Disp1,inactive: -0.957
19,GGUUGUGUCAAUAAAAACATT against Dusp2,inactive: 1.04
